Consider eleven molecules from the supplement of paper PMC4604168 (melanoma cell lines).

Each structure is given as a SMILES string. This is one part of the list. Single values are uncertain, as repeats are few or missing.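 Imaging used 1,536-well plates; nuclei positive for cleaved PARP by antibody were divided by total DNA-stained nuclei to yield the apoptosis fraction. Doses for screening kept most cells viable, and cell lines differ markedly in resting and induced cleaved-PARP levels.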

Among the test systems are 501Mel; A101D; A2058; A375; C32; CBRC008; CBRC014; CBRC016; CBRC017.
Assay in all cases: cleaved PARP positive nuclei fraction relative to DMSO control; melanoma cells; higher = more apoptosis
Settings in all cases: library dose: low library concentration; 72 h

For the molecule `Cn1cc(C2=C(c3cn(C4CCN(Cc5ccccn5)CC4)c4ccccc34)C(=O)NC2=O)c2ccccc21` [Enzastaurin] + COc1ccc(C2=N[C@@H](c3ccc(Cl)cc3)[C@@H](c3ccc(Cl)cc3)N2C(=O)N2CCNC(=O)C2)c(OC(C)C)c1 [Nutlin-3] (first compound 0.8 µM, partner dose 0.1 µM), the “cleaved PARP positive nuclei fraction” value with 501Mel was 57.7%; with A101D it was 96.9%; with A2058, 105%; in the assay with A375, 52.2%; in the assay with C32, 76.5%; in the assay with CBRC008, 136%. For the same molecule, the “cleaved PARP positive nuclei fraction” value is 105% with CBRC014, 155% in the assay on CBRC016 (line from a melanoma biopsy) and 125% with CBRC017.
In the case of `C[C@]12O[C@H](C[C@]1(O)CO)n1c3ccccc3c3c4c(c5c6ccccc6n2c5c31)CNC4=O` [Lestaurtinib] + Cn1c(=O)n(-c2ccc(C(C)(C)C#N)cc2)c2c3cc(-c4cnc5ccccc5c4)ccc3ncc21 [NVP-BEZ235] (first compound 0.004 µM, partner dose 0.004 µM), the “cleaved PARP positive nuclei fraction” value turned out to be 56.8% in the assay on 501Mel; 94.6% in the assay with A101D; 97.7% with A2058; 301% with A375; 163% in the assay with C32; 59% with CBRC008. For the same molecule, the “cleaved PARP positive nuclei fraction” value with CBRC014 is 101%; in the assay with CBRC016 it was 72.6%; in the assay with CBRC017, 98.9%.
In the case of `OCc1c[nH]c2ccccc12` [Indole-3-carbinol] + C[As](C)SC[C@H](NC(=O)CC[C@H](N)C(=O)O)C(=O)NCC(=O)O [Darinaparsin] (first compound 0.8 µM, partner dose 0.4 µM), the “cleaved PARP positive nuclei fraction” value in the assay on 501Mel is 57.2%; in the assay on A101D it was 51.5%; in the assay on A2058, 184%; in the assay on A375, 92.4%; with C32 it was 79.9%; in the assay with CBRC008, 64.6%. The “cleaved PARP positive nuclei fraction” value in the assay with CBRC014 came to 101%; in the assay with CBRC016 it was 94.6%; in the assay on CBRC017 (line from a melanoma biopsy), 112%.
On to `Cn1sc(=O)n(Cc2ccccc2)c1=O` + C[C@]12O[C@H](C[C@]1(O)CO)n1c3ccccc3c3c4c(c5c6ccccc6n2c5c31)CNC4=O [Lestaurtinib] (first compound 0.4 µM, partner dose 0.004 µM), for which the “cleaved PARP positive nuclei fraction” value in the assay with 501Mel was 75.4%; with A101D, 43.3%; with A2058, 73%; in the assay with A375, 80.6%; with C32, 67.9%; with CBRC008 it was 35.2%. The figures for the “cleaved PARP positive nuclei fraction” value in the assay on CBRC014 (line from a melanoma biopsy), with CBRC016 and with CBRC017 were 102%, 86.6% and 102%, respectively.
As for `CCCCCCCCc1ccc(CCC(N)(CO)CO)cc1` [fingolimod] + N.N.[Cl][Pt][Cl] [cisplatin] (first compound 2 µM, partner dose 1.6 µM), the “cleaved PARP positive nuclei fraction” value worked out at 254% in the assay on 501Mel; 107% with A101D; 74% in the assay on A2058; 428% in the assay on A375; 73.4% in the assay on C32; 45.1% with CBRC008. Also, the “cleaved PARP positive nuclei fraction” value was 123% with CBRC014, 186% with CBRC016 and 114% with CBRC017.
Turning to `C[C@]1(O)C[C@@H](c2nc(-c3ccc4ccc(-c5ccccc5)nc4c3)c3c(N)nccn32)C1` + C[As](C)SC[C@H](NC(=O)CC[C@H](N)C(=O)O)C(=O)NCC(=O)O [Darinaparsin] (first compound 0.4 µM, partner dose 0.4 µM), the “cleaved PARP positive nuclei fraction” value amounted to 70.2% with 501Mel; 85.4% with A101D; 45% with A2058; 879% with A375; 82.4% with C32; 90.3% in the assay on CBRC008 (line from a melanoma biopsy). In addition, the “cleaved PARP positive nuclei fraction” value in the assay with CBRC014 is 112%; in the assay with CBRC016, 84.3%; in the assay with CBRC017 it was 223%.
Take `Cc1cn(-c2cc(NC(=O)c3ccc(C)c(Nc4nccc(-c5cccnc5)n4)c3)cc(C(F)(F)F)c2)cn1` [nilotinib] + Cn1cc(C2=C(c3cn(C4CCN(Cc5ccccn5)CC4)c4ccccc34)C(=O)NC2=O)c2ccccc21 [Enzastaurin] (first compound 0.2 µM, partner dose 0.8 µM): the “cleaved PARP positive nuclei fraction” value with 501Mel was 81.5%; in the assay with A101D, 123%; in the assay with A2058, 56.3%; with A375 it was 36%; in the assay on C32, 76.5%; in the assay with CBRC008, 78.5%. Besides, the entries for the “cleaved PARP positive nuclei fraction” value in the assay on CBRC014, in the assay on CBRC016 and in the assay on CBRC017 were 94.5%, 59% and 111%, respectively.
`C[C@]12O[C@H](C[C@]1(O)CO)n1c3ccccc3c3c4c(c5c6ccccc6n2c5c31)CNC4=O` [Lestaurtinib] + CO[C@H]1C[C@@H]2CC[C@@H](C)[C@@](O)(O2)C(=O)C(=O)N2CCCC[C@H]2C(=O)O[C@H]([C@H](C)C[C@@H]2CC[C@@H](OCCO)[C@H](OC)C2)CC(=O)[C@H](C)/C=C(\C)[C@@H](O)[C@@H](OC)C(=O)[C@H](C)C[C@H](C)/C=C/C=C/C=C/1C [everolimus] (first compound 0.004 µM, partner dose 0.02 µM): the “cleaved PARP positive nuclei fraction” value with 501Mel was 394%; in the assay on A101D it was 30.6%; in the assay with A2058, 217%; in the assay on A375, 939%; with C32, 87.6%; with CBRC008, 137%. In addition, the “cleaved PARP positive nuclei fraction” value was 90% in the assay on CBRC014, 59.9% in the assay with CBRC016 and 111% in the assay with CBRC017.
Take `Cc1cn(-c2cc(NC(=O)c3ccc(C)c(Nc4nccc(-c5cccnc5)n4)c3)cc(C(F)(F)F)c2)cn1` [nilotinib] + C[C@]12O[C@H](C[C@]1(O)CO)n1c3ccccc3c3c4c(c5c6ccccc6n2c5c31)CNC4=O [Lestaurtinib] (first compound 0.2 µM, partner dose 0.004 µM): the “cleaved PARP positive nuclei fraction” value in the assay on 501Mel was found to be 78%; in the assay with A101D, 127%; in the assay on A2058, 147%; in the assay on A375, 233%; in the assay with C32, 73.3%; in the assay with CBRC008, 51.2%. In addition, the entries for the “cleaved PARP positive nuclei fraction” value in the assay on CBRC014, in the assay with CBRC016 and with CBRC017 were 86%, 131% and 104%, respectively.
Turning to `N.N.[Cl][Pt][Cl]` [cisplatin] + Cn1nnc2c(C(N)=O)ncn2c1=O [temozolomide] (first compound 1.6 µM, partner dose 2 µM), the “cleaved PARP positive nuclei fraction” value stood at 90.9% with 501Mel; 94.3% in the assay with A101D; 82.7% in the assay with A2058; 59.9% in the assay on A375; 82.1% with C32; 106% in the assay on CBRC008. Also, the “cleaved PARP positive nuclei fraction” value in the assay with CBRC014 was 112%; with CBRC016, 221%; with CBRC017, 134%.
Turning to `N.N.[Cl][Pt][Cl]` [cisplatin] + O=C(O)c1ccc2c(c1)nc(Nc1cccc(Cl)c1)c1ccncc12 [CX4945] (first compound 1.6 µM, partner dose 0.4 µM), the “cleaved PARP positive nuclei fraction” value with 501Mel came out at 69%; in the assay with A101D, 29.6%; in the assay with A2058 it was 176%; in the assay with A375 it was 95%; in the assay on C32, 80.3%; in the assay on CBRC008 it was 262%. The “cleaved PARP positive nuclei fraction” value with CBRC014 worked out at 104%; in the assay on CBRC016 it was 112%; with CBRC017, 213%.
